Results are given in words; binding and its absence hold for the method and conditions named. Binding seen in cells or lysates may run through a third protein.
Key:
[1] = target: myc-tagged FGF-1 (human) (UniProt P05230); assay: co-IP; HEK293T co-transfected with PLAC1 and one of six C-terminally myc-tagged FGFs; IP with anti-myc antibody, mouse serum as control; Western blot for PLAC1
[2] = target: myc-tagged FGF-2 (human) (UniProt P09038); assay: as above

Sequences of proteins named here, by UniProt entry; tags and fusion partners are left off. A change or cut given only in a name is not applied to a line headed by its entry.
UniProt P05230: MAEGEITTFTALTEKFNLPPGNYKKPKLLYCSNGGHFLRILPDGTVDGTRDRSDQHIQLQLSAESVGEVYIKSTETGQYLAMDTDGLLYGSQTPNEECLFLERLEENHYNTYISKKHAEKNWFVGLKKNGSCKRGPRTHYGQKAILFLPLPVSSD
UniProt P09038: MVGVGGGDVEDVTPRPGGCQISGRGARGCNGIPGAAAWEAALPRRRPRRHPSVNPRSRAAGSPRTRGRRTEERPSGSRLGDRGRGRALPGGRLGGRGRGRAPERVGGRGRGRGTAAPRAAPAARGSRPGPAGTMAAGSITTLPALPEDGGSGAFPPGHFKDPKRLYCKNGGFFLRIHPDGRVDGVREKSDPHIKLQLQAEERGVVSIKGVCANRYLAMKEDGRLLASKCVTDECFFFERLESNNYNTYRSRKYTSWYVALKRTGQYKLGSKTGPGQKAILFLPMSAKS

binding [1]: no binding | binding [2]: no binding
B1: PLAC1 (placenta enriched 1) (protein, UniProt Q9HBJ0 23-212)
chain: QSPMTVLCSIDWFMVTVHPFMLNNDVCVHFHELHLGLGCPPNHVQPHAYQFTYRVTECGIRAKAVSQDMVIYSTEIHYSSKGTPSKFVIPVSCAAPQKSPWLTKPCSMRVASKSRATAQKDEKCYEVFSLSQSSQRPNCDCPPCVFSEEEHTQVPCHQAGAQEAQPLQPSHFLDISEDWSLHTDDMIGSM

— PMC7244013
